This is one part of the list.

Amino acid sequences for entries named in this document (tags omitted). A change or cut given only in a name is not applied to a line headed by its entry.
UniProt P30519: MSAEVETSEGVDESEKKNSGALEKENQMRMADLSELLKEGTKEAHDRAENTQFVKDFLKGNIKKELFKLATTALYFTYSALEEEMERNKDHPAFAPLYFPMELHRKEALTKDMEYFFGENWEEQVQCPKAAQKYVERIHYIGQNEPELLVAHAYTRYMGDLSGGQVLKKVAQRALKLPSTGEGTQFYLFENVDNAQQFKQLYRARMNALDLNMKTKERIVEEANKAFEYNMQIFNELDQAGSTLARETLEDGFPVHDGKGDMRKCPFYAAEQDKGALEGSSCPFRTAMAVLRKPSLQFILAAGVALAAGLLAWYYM
UniProt P48723: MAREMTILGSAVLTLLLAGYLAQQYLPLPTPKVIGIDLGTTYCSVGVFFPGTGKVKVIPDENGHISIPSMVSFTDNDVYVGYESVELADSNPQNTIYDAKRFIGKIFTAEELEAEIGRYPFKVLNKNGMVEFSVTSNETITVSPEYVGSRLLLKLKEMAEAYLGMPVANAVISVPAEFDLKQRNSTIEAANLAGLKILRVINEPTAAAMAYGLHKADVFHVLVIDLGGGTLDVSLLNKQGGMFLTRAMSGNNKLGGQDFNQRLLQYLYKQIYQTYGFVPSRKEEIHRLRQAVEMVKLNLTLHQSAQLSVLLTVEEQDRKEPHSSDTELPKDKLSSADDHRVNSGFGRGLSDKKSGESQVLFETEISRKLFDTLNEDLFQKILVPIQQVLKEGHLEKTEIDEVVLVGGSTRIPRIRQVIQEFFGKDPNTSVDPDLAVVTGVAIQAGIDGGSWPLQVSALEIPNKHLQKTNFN
UniProt Q53FT3: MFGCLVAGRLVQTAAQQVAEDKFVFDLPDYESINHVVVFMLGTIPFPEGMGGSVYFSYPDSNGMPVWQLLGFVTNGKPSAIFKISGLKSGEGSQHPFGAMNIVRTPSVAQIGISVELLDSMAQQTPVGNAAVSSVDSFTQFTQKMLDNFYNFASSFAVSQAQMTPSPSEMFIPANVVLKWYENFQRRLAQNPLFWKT
UniProt P23327: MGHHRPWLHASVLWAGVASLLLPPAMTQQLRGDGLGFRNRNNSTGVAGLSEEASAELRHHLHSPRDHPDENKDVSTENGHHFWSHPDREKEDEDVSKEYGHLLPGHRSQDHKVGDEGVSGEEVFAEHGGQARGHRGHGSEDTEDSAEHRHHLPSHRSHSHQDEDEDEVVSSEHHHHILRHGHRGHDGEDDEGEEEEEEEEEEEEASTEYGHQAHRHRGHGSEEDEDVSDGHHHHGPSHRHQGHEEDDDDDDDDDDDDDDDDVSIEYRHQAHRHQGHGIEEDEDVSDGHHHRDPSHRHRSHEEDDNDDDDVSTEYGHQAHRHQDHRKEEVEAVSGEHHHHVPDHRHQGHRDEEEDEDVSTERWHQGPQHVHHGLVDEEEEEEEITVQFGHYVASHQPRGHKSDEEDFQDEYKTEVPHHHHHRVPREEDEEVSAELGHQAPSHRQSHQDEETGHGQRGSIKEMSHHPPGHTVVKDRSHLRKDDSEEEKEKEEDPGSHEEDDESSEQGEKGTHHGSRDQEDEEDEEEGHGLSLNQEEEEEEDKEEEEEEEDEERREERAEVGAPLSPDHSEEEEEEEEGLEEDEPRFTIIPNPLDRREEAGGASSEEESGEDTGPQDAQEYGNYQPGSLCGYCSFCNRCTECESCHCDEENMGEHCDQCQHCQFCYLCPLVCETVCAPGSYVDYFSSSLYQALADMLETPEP
UniProt Q9BXL5: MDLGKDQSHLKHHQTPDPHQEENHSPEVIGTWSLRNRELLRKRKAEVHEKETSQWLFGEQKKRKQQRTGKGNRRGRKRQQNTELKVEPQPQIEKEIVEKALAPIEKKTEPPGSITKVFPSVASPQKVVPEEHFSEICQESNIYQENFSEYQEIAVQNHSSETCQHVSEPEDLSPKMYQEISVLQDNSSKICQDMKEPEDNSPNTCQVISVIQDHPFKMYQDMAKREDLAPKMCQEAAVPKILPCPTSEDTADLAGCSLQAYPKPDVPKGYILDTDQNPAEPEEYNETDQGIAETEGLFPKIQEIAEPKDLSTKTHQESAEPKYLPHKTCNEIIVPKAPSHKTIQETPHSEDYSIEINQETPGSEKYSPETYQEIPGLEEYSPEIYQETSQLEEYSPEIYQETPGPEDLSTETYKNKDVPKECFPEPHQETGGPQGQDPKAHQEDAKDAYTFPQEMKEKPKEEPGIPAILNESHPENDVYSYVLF
UniProt P09429: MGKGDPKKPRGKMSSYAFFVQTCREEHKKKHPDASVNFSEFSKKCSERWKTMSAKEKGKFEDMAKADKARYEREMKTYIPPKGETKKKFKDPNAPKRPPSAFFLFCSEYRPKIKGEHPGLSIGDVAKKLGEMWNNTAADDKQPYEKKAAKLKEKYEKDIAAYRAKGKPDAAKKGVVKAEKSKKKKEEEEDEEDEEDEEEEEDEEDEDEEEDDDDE
UniProt P11021: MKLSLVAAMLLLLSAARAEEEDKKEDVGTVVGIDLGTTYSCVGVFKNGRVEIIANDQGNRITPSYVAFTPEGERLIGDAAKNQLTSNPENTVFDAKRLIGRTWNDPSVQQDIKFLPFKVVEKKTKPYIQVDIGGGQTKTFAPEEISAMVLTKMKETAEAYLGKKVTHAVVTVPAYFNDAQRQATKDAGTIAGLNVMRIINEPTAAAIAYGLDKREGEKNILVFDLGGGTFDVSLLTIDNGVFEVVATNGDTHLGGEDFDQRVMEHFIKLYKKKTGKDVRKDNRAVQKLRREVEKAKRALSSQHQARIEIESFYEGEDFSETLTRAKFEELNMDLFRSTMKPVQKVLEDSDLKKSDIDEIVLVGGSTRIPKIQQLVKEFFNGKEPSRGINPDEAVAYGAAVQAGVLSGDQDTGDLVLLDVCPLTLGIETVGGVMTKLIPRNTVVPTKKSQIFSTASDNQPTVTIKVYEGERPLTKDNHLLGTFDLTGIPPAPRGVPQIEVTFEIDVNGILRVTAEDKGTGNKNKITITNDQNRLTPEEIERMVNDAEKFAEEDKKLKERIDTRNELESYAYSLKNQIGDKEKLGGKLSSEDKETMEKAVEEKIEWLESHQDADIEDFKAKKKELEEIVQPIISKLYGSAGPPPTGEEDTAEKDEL
UniProt P09651: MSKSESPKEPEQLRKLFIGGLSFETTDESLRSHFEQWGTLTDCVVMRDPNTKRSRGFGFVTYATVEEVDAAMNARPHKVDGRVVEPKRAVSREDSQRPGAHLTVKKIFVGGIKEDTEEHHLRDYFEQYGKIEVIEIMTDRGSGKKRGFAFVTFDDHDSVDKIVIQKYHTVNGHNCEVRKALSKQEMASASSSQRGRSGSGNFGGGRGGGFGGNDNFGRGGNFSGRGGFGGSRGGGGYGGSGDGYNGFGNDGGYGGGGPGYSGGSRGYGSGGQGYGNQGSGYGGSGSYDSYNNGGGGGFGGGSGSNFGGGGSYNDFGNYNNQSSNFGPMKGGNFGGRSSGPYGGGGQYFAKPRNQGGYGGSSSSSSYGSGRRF

The text below walks through data of the supplement of paper PMC10849652.

Assay in all cases: log2 fold change, soluble protein after heating vs DMSO (PISA); higher = thermal stabilisation; K562 lysate, 10 uM; active = over 0.2 and 3.5 SD of the protein, either way, in both replicates (recomputed)
Compound in experiment [1]: NCC(=O)Nc1ccc(-n2nc(C(F)(F)F)cc2-c2ccc3c(ccc4ccccc43)c2)cc1
In outline:
(§1)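 Log-two fold change in thermal stability relative to solvent controls is reported from duplicates. For each sample, crude K562 extract from dounce-homogenised pellets in PBS pH 7.4 with 1 mM MgCl2, at 1 mg/mL protein, was treated with 10 μM compound for 30 min. Aliquots heated for 3 min across 48°C-58°C were pooled, brought to 0.5% NP-40 at 4°C and cleared at 21,000xg for 90 min. The supernatant was quantified by TMTpro 16plex LC-MS/MS with channel sums equalised.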

Compound in experiment [2]: O=C(CCCCCCC(=O)Nc1ccccc1)NO [vorinostat]
The method, boiled down: as §1

Compound in experiment [3]: O=C(O)c1ccc2c(c1)nc(Nc1cccc(Cl)c1)c1ccncc12 [silmitasertib]
The method, boiled down:
as §1

Compound in experiment [4]: O=C1NC(=O)C(c2cnc3ccccn23)=C1c1cn2c3c(cc(F)cc13)CN(C(=O)N1CCCCC1)CC2
In outline:
as §1

Compound in experiment [5]: c1cn2cc(-c3ccc4cn[nH]c4c3)nc(Nc3ccc(N4CCOCC4)cc3)c2n1 [entospletinib]
In outline:
as §1

Consider HMOX2 (UniProt P30519), for which the log2 fold change in experiment [1] was inactive: 0.014; in experiment [2] it was inactive: 0.07; in experiment [3] it was inactive: -0.003; in experiment [4] it was inactive: -0.021; in experiment [5] it was inactive: -0.018.

Regarding HSPA13 (UniProt P48723), the log2 fold change in experiment [1] was inactive: -0.019; in experiment [2] it was inactive: 0.12; in experiment [3] it was inactive: 0.037; in experiment [4], inactive: -0.018; in experiment [5], inactive: 0.014.

As for HECTD4 (UniProt J3KPF0), the log2 fold change in experiment [1] was inactive: 0.051; in experiment [2] it was active: -0.472; in experiment [3], inactive: -0.003; in experiment [4], inactive: 0.032; in experiment [5] it was inactive: 0.001.

Take HIKESHI (UniProt Q53FT3): the log2 fold change is inactive: -0.172 in experiment [1]; inactive: 0.12 in experiment [2]; inactive: -0.023 in experiment [3]; inactive: 0.006 in experiment [4]; inactive: 0.059 in experiment [5].

For the target HRC (UniProt P23327), the log2 fold change is inactive: 0.013 in experiment [1]; inactive: 0.174 in experiment [2]; inactive: -0.015 in experiment [3]; inactive: 0.017 in experiment [4]; inactive: 0.046 in experiment [5].

Consider HEMGN (UniProt Q9BXL5), for which the log2 fold change in experiment [1] is inactive: -0.003; in experiment [2], inactive: 0.082; in experiment [3] it was inactive: -0.032; in experiment [4], inactive: 0.008; in experiment [5], inactive: 0.016.

Consider HMGB1 (UniProt P09429), for which the log2 fold change in experiment [1] was inactive: -0.024; in experiment [2], inactive: 0.083; in experiment [3] it was inactive: 0.017; in experiment [4], inactive: 0.098; in experiment [5], inactive: -0.014.

Consider HSPA5 (UniProt P11021), for which the log2 fold change in experiment [1] was inactive: -0.034; in experiment [2] it was inactive: 0.084; in experiment [3], inactive: 0.012; in experiment [4], inactive: -0.061; in experiment [5], inactive: -0.003.

As for HNRNPA1 (UniProt P09651), the log2 fold change in experiment [1] is inactive: 0.038; in experiment [2] it was inactive: 0.143; in experiment [3] it was inactive: 0.001; in experiment [4] it was inactive: 0.011; in experiment [5], inactive: -0.036.
